Measured data: PubChem BioAssay AID1224829 (NIAID, 2016)
Aim: 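Follow-up of TLR4-NF-kappaB regulators using six separate siRNAs for each gene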 (follow-up of hits). Cells: mouse RAW264.7 G9 macrophage reporter cells. Reagents: single siRNA against mouse genes, 100 nM. Time to read-out: 2 days of siRNA knock-down, then 40 min of LPS before fixing. Challenge: LPS (Salmonella minnesota R595) at 10 ng/ml. Measured: 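High-content images after 40 min LPS exposure; GFP-p65 nucleus to surrounding ring signal ratio, normalised to plate median and non-targeting control wells, expressed as z-score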. Direction: p65 translocation z-score and gene median z-score, per vendor: higher = more nuclear NF-kappaB p65 after LPS. Call rule: 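An siRNA is called active when the mean z-score of its two replicates is above 2 or below -2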. Calls: active = changed p65 translocation (either direction); inactive = no clear change.
The whole screen tested about 3,800 reagents; below is an unselected part. 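Calls cover raised and lowered translocation; gene median uses one vendor's three siRNAs; qiagen siRNAs acted more weakly than ambion siRNAs.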

target gene	PubChem SID	siRNA vendor or control pool	p65 translocation z-score, replicate mean	p65 translocation z-score, replicate 1	p65 translocation z-score, replicate 2	gene median z-score, per vendor	activity call
Nanp	SID315486462	ambion single siRNA	1.43	1.54	1.31	-1.81	inactive
Nanp	SID315486463	ambion single siRNA	-2.36	-1.81	-2.92	-1.81	active
Nanp	SID315486464	ambion single siRNA	-2.99	-2.99		-1.81	active
Nanp	SID315486465	qiagen single siRNA	-1.53	-1.59	-1.48	-1.97	inactive
Nanp	SID315486466	qiagen single siRNA	-3.17	-4.36	-1.97	-1.97	active
Nanp	SID315486467	qiagen single siRNA	-4.31	-4.31		-1.97	active
Aqp3	SID315483759	ambion single siRNA	-0.0954	0.47	-0.66	-1.55	inactive
Aqp3	SID315483760	ambion single siRNA	-1.55	-1.55	-1.55	-1.55	inactive
Aqp3	SID315483761	ambion single siRNA	-6.33	-8.01	-4.65	-1.55	active
Aqp3	SID315483762	qiagen single siRNA	1.28	0.549	2.01	-1.37	inactive
Aqp3	SID315483763	qiagen single siRNA	-1.37	-1.01	-1.73	-1.37	inactive
Aqp3	SID315483764	qiagen single siRNA	-3.03	-1.84	-4.22	-1.37	active
Nedd4	SID315484569	ambion single siRNA	0.65	0.914	0.386	-0.0243	inactive
Nedd4	SID315484570	ambion single siRNA	-0.718	-0.718		-0.0243	inactive
Nedd4	SID315484571	ambion single siRNA	-1.57	-3.12	-0.0243	-0.0243	inactive
Nedd4	SID315484572	qiagen single siRNA	1.44	0.932	1.94	0.239	inactive
Nedd4	SID315484573	qiagen single siRNA	-0.598	-0.743	-0.454	0.239	inactive
Nedd4	SID315484574	qiagen single siRNA	0.256	-0.485	0.997	0.239	inactive
Cubn	SID315486315	qiagen single siRNA	-1	-2.26	0.258	-1.17	inactive
Cubn	SID315486316	qiagen single siRNA	-0.53	-1.17	0.105	-1.17	inactive
Cubn	SID315486317	qiagen single siRNA	-2.71	-2.71		-1.17	active
Ptpn3	SID315489306	qiagen single siRNA	1.21	1.63	0.79	-1.26	inactive
Ptpn3	SID315489307	qiagen single siRNA	-1.26	-1.61	-0.912	-1.26	inactive
Ptpn3	SID315489308	qiagen single siRNA	-3.47	-1.75	-5.2	-1.26	active
Trav13-5	SID315488196	ambion single siRNA	2.72	3.73	1.7	1.3	active
Trav13-5	SID315488197	ambion single siRNA	1.31	1.71	0.9	1.3	inactive
Trav13-5	SID315488198	ambion single siRNA	-2.37	-3.02	-1.72	1.3	active
Trav13-5	SID315488199	qiagen single siRNA	0.237	-0.698	1.17	-0.619	inactive
Trav13-5	SID315488200	qiagen single siRNA	-0.394	-0.394		-0.619	inactive
Trav13-5	SID315488201	qiagen single siRNA	-0.744	-0.87	-0.619	-0.619	inactive
Snrnp40	SID315486390	ambion single siRNA	-2.31	-2.59	-2.02	-2.04	active
Snrnp40	SID315486391	ambion single siRNA	-2.7	-3.33	-2.07	-2.04	active
Snrnp40	SID315486392	ambion single siRNA	-1.21	-0.849	-1.58	-2.04	inactive
Snrnp40	SID315486393	qiagen single siRNA	0.559	0.616	0.502	0.559	inactive
Snrnp40	SID315486394	qiagen single siRNA	2.65	0.398	4.9	0.559	active
Snrnp40	SID315486395	qiagen single siRNA	-0.466	-2.15	1.22	0.559	inactive
Lrrn4	SID315488946	ambion single siRNA	2.21	3.85	0.566	-0.235	active
Lrrn4	SID315488947	ambion single siRNA	-1.78	-2.52	-1.04	-0.235	inactive
Lrrn4	SID315488948	ambion single siRNA	-1.2	0.948	-3.35	-0.235	inactive
Lrrn4	SID315488949	qiagen single siRNA	1.86	0.314	3.41	0.891	inactive
Lrrn4	SID315488950	qiagen single siRNA	1.39	1.45	1.33	0.891	inactive
Lrrn4	SID315488951	qiagen single siRNA	0.372	0.289	0.456	0.891	inactive
Rbmx	SID315484779	ambion single siRNA	0.112	0.826	-0.602	-1.61	inactive
Rbmx	SID315484780	ambion single siRNA	-1.98	-0.496	-3.47	-1.61	inactive
Rbmx	SID315484781	ambion single siRNA	-2.92	-3.21	-2.63	-1.61	active
Skint7	SID315488958	ambion single siRNA	1.11	1.57	0.654	-0.144	inactive
Skint7	SID315488959	ambion single siRNA	-1.15	-1.36	-0.941	-0.144	inactive
Skint7	SID315488960	ambion single siRNA	-0.662	0.895	-2.22	-0.144	inactive
Skint7	SID315488961	qiagen single siRNA	-1.02	-1.09	-0.939	-0.884	inactive
Skint7	SID315488962	qiagen single siRNA	-0.712	-0.829	-0.596	-0.884	inactive
Skint7	SID315488963	qiagen single siRNA				-0.884	inactive

Records above whose target name starts with R or r:
target gene	PubChem SID	siRNA vendor or control pool	p65 translocation z-score, replicate mean	p65 translocation z-score, replicate 1	p65 translocation z-score, replicate 2	gene median z-score, per vendor	activity call
Rbmx	SID315484779	ambion single siRNA	0.112	0.826	-0.602	-1.61	inactive
Rbmx	SID315484780	ambion single siRNA	-1.98	-0.496	-3.47	-1.61	inactive
Rbmx	SID315484781	ambion single siRNA	-2.92	-3.21	-2.63	-1.61	active
